{"source": "PubChem BioAssay AID652272 (Drosophila RNAi Screening Center, 2013)", "assay": "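Finding fly genes that regulate Hedgehog signal transduction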 (primary screen)", "cell system": "Drosophila clone 8 (Cl8) cells", "reagents": "long dsRNA against Drosophila genes", "read-out": "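Plate reader light from a firefly reporter under a ptc promoter fragment that responds to Hedgehog, with Renilla light as transfection reference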", "reading the numbers": "firefly Hh reporter signal: higher = more ptc reporter light; Renilla reference signal: higher = more Renilla control light", "call rule": "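Called a hit if the two-replicate mean z-score lies below -2 or above +3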", "calls": "active = hit: reporter lowered or raised; inactive = not a hit", "note": "The screen tested about 21,000 reagents; this is a random part of those with a known target gene and a result. In the full data, 503 (2.4%) are marked active. 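Raw plate light values, not normalised; calls rest on replicate z-scores that were not deposited; hits include reporter decreases as well as increases.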 Not given: the amount of reagent, the time to read-out."}
{"target gene": "Rab1 (GeneID 42524)", "amplicon": "DRSC16808", "firefly Hh reporter signal, replicate 1": 3.74e5, "firefly Hh reporter signal, replicate 2": 1.82e5, "Renilla reference signal, replicate 1": 21019, "Renilla reference signal, replicate 2": 3861, "activity call": "inactive"}
{"target gene": "E(bx) (GeneID 44811)", "amplicon": "DRSC08172", "firefly Hh reporter signal, replicate 1": 54666, "firefly Hh reporter signal, replicate 2": 58909, "Renilla reference signal, replicate 1": 2042, "Renilla reference signal, replicate 2": 3846, "activity call": "inactive"}
{"target gene": "E(bx) (GeneID 44811)", "amplicon": "DRSC08509", "firefly Hh reporter signal, replicate 1": 67666, "firefly Hh reporter signal, replicate 2": 40518, "Renilla reference signal, replicate 1": 2092, "Renilla reference signal, replicate 2": 2658, "activity call": "inactive"}
{"target gene": "E(bx) (GeneID 44811)", "amplicon": "DRSC08583", "firefly Hh reporter signal, replicate 1": 48071, "firefly Hh reporter signal, replicate 2": 40950, "Renilla reference signal, replicate 1": 2720, "Renilla reference signal, replicate 2": 1968, "activity call": "inactive"}
{"target gene": "CG15484 (GeneID 34682)", "amplicon": "DRSC02494", "firefly Hh reporter signal, replicate 1": 2.13e5, "firefly Hh reporter signal, replicate 2": 6.46e5, "firefly Hh reporter signal, replicate 3": 83100, "Renilla reference signal, replicate 1": 5392, "Renilla reference signal, replicate 2": 35851, "activity call": "inactive"}
{"target gene": "CG34426 (GeneID 5740622)", "amplicon": "DRSC09977", "firefly Hh reporter signal, replicate 1": 49644, "firefly Hh reporter signal, replicate 2": 69144, "Renilla reference signal, replicate 1": 6880, "Renilla reference signal, replicate 2": 4550, "activity call": "inactive"}
{"target gene": "Bem46 (GeneID 44441)", "amplicon": "DRSC00275", "firefly Hh reporter signal, replicate 1": 81285, "firefly Hh reporter signal, replicate 2": 63450, "Renilla reference signal, replicate 1": 1209, "Renilla reference signal, replicate 2": 4811, "activity call": "inactive"}
{"target gene": "CG14420 (GeneID 31284)", "amplicon": "DRSC17917", "firefly Hh reporter signal, replicate 1": 62138, "firefly Hh reporter signal, replicate 2": 1.27e5, "Renilla reference signal, replicate 1": 3012, "Renilla reference signal, replicate 2": 5504, "activity call": "inactive"}
{"target gene": "SCaMC (GeneID 39415)", "amplicon": "DRSC10293", "firefly Hh reporter signal, replicate 1": 96560, "firefly Hh reporter signal, replicate 2": 74801, "Renilla reference signal, replicate 1": 3847, "Renilla reference signal, replicate 2": 2747, "activity call": "inactive"}
{"target gene": "SCaMC (GeneID 39415)", "amplicon": "DRSC10415", "firefly Hh reporter signal, replicate 1": 77453, "firefly Hh reporter signal, replicate 2": 40665, "firefly Hh reporter signal, replicate 3": 35443, "Renilla reference signal, replicate 1": 3299, "Renilla reference signal, replicate 2": 1393, "activity call": "inactive"}
{"target gene": "CG32669 (GeneID 326229)", "amplicon": "DRSC18864", "firefly Hh reporter signal, replicate 1": 4.58e5, "firefly Hh reporter signal, replicate 2": 2.09e5, "Renilla reference signal, replicate 1": 24970, "Renilla reference signal, replicate 2": 4776, "activity call": "inactive"}
{"target gene": "CG2772 (GeneID 33559)", "amplicon": "DRSC00530", "firefly Hh reporter signal, replicate 1": 85672, "firefly Hh reporter signal, replicate 2": 58858, "Renilla reference signal, replicate 1": 1907, "Renilla reference signal, replicate 2": 4557, "activity call": "inactive"}
{"target gene": "Gr36c (GeneID 117486)", "amplicon": "DRSC02437", "firefly Hh reporter signal, replicate 1": 91565, "firefly Hh reporter signal, replicate 2": 50241, "Renilla reference signal, replicate 1": 2224, "Renilla reference signal, replicate 2": 4425, "activity call": "inactive"}
{"target gene": "mRpL23 (GeneID 38302)", "amplicon": "DRSC08307", "firefly Hh reporter signal, replicate 1": 73637, "firefly Hh reporter signal, replicate 2": 52043, "Renilla reference signal, replicate 1": 1996, "Renilla reference signal, replicate 2": 3496, "activity call": "inactive"}
{"target gene": "CG4593 (GeneID 31649)", "amplicon": "DRSC18374", "firefly Hh reporter signal, replicate 1": 54477, "firefly Hh reporter signal, replicate 2": 1.09e5, "Renilla reference signal, replicate 1": 2626, "Renilla reference signal, replicate 2": 5571, "activity call": "inactive"}
{"target gene": "AP-1sigma (GeneID 42835)", "amplicon": "DRSC15899", "firefly Hh reporter signal, replicate 1": 1.52e5, "firefly Hh reporter signal, replicate 2": 1.07e5, "Renilla reference signal, replicate 1": 5794, "Renilla reference signal, replicate 2": 3957, "activity call": "inactive"}
{"target gene": "MAGE (GeneID 40860)", "amplicon": "DRSC12504", "firefly Hh reporter signal, replicate 1": 78711, "firefly Hh reporter signal, replicate 2": 1.17e5, "Renilla reference signal, replicate 1": 2952, "Renilla reference signal, replicate 2": 3223, "activity call": "inactive"}
{"target gene": "fs(1)M3 (GeneID 45994)", "amplicon": "DRSC18381", "firefly Hh reporter signal, replicate 1": 84867, "firefly Hh reporter signal, replicate 2": 1.07e5, "Renilla reference signal, replicate 1": 2068, "Renilla reference signal, replicate 2": 2408, "activity call": "inactive"}
{"target gene": "CG43062 (GeneID 12797888)", "amplicon": "DRSC12866", "firefly Hh reporter signal, replicate 1": 40962, "firefly Hh reporter signal, replicate 2": 1.89e5, "Renilla reference signal, replicate 1": 9174, "Renilla reference signal, replicate 2": 4208, "activity call": "inactive"}
{"target gene": "CG32440 (GeneID 318030)", "amplicon": "DRSC11480", "firefly Hh reporter signal, replicate 1": 2.31e5, "Renilla reference signal, replicate 1": 5818, "activity call": "inactive"}
{"target gene": "CG10177 (GeneID 42772)", "amplicon": "DRSC14201", "firefly Hh reporter signal, replicate 1": 5.70e5, "firefly Hh reporter signal, replicate 2": 80328, "Renilla reference signal, replicate 1": 26124, "Renilla reference signal, replicate 2": 2067, "activity call": "inactive"}
{"target gene": "CG15203 (GeneID 32038)", "amplicon": "DRSC19650", "firefly Hh reporter signal, replicate 1": 1.00e5, "firefly Hh reporter signal, replicate 2": 2.69e5, "Renilla reference signal, replicate 1": 3057, "Renilla reference signal, replicate 2": 10280, "activity call": "inactive"}
{"target gene": "Rpt5 (GeneID 42805)", "amplicon": "DRSC16842", "firefly Hh reporter signal, replicate 1": 47446, "firefly Hh reporter signal, replicate 2": 23533, "Renilla reference signal, replicate 1": 4611, "Renilla reference signal, replicate 2": 855, "activity call": "inactive"}
{"target gene": "east (GeneID 46006)", "amplicon": "DRSC18770", "firefly Hh reporter signal, replicate 1": 2.91e5, "firefly Hh reporter signal, replicate 2": 91274, "Renilla reference signal, replicate 1": 7289, "Renilla reference signal, replicate 2": 2955, "activity call": "inactive"}
{"target gene": "bru2 (GeneID 250811)", "amplicon": "DRSC01246", "firefly Hh reporter signal, replicate 1": 5.87e5, "firefly Hh reporter signal, replicate 2": 2.55e5, "Renilla reference signal, replicate 1": 30797, "Renilla reference signal, replicate 2": 12576, "activity call": "inactive"}
{"target gene": "bru2 (GeneID 250811)", "amplicon": "DRSC01247", "firefly Hh reporter signal, replicate 1": 5.01e5, "firefly Hh reporter signal, replicate 2": 2.06e5, "Renilla reference signal, replicate 1": 20708, "Renilla reference signal, replicate 2": 7442, "activity call": "inactive"}
{"target gene": "bru2 (GeneID 250811)", "amplicon": "DRSC01249", "firefly Hh reporter signal, replicate 1": 5.43e5, "firefly Hh reporter signal, replicate 2": 2.59e5, "Renilla reference signal, replicate 1": 31685, "Renilla reference signal, replicate 2": 10538, "activity call": "inactive"}
{"target gene": "bru2 (GeneID 250811)", "amplicon": "DRSC01250", "firefly Hh reporter signal, replicate 1": 5.07e5, "firefly Hh reporter signal, replicate 2": 2.34e5, "Renilla reference signal, replicate 1": 25877, "Renilla reference signal, replicate 2": 10354, "activity call": "inactive"}
{"target gene": "bru2 (GeneID 250811)", "amplicon": "DRSC02557", "firefly Hh reporter signal, replicate 1": 72369, "firefly Hh reporter signal, replicate 2": 20210, "Renilla reference signal, replicate 1": 2204, "Renilla reference signal, replicate 2": 2140, "activity call": "inactive"}
